Source: patent US10570184B2, “GLP-1/glucagon receptor co-agonists for medical use” (Novo Nordisk A/S, priority 2014, dated 2020)
At least one compound was matched to its structure with a doubt left. Starred links: 1 amine or outer side, 2 acyl side, 3 side chain; linkers in the order of their positions; H or OH if unused. Non-standard residues stand in square brackets, D forms with d. Residues, ends and D or L forms follow the SMILES beside them. Groups on a side chain read outwards from the residue. *: point of attachment. C18 diacid = O=C(O)CCCCCCCCCCCCCCCCC(=O)*; γGlu = O=C(O)[C@H](CCC(=O)[*:2])N[*:1]; AEEA = NCCOCCOCC(=O)O; Aib = CC(C)(N)C(=O)O

Assay: Assay (III) ThT fibrillation assay for physical stability
Assay type: physicochemical
Conditions: 250 μM in 10 mM HEPES buffer, 37° C., shaking 960 rpm
From the text: The purpose of this assay is to assess the physical stability of the glucagon derivatives of the invention in aqueous solutions. Low physical stability of a peptide may lead to amyloid fibril formation, which is observed as well-ordered, thread-like macromolecular structures in the sample, which eventually may lead to gel formation. This has traditionally been measured by visual inspection of the sample. However, that kind of measurement is very subjective and depending on the observer. Therefore, the application of a small molecule indicator probe is much more advantageous. Thioflavin T (ThT) is such a probe and has a distinct fluorescence signature when binding to fibrils [Naiki et al. (1989) Anal. Biochem. 177, 244-249; LeVine (1999) Methods. Enzymol. 309, 274-284]. […] The constant t0 is the time needed to reach 50% of maximum fluorescence. The two important parameters describing fibril formation are the lag-time calculated by t0−2τ and the apparent rate constant kapp 1/τ. Samples were prepared freshly before each assay. Each sample composition is described in the legends. The pH of the sample was adjusted to the desired value using appropriate amounts of concentrated NaOH and HCl. Thioflavin T was added to the samples from a stock solution in H2O to a final concentration of 1 μM. Sample aliquots of 200 μl (250 μM of the glucagon derivative in 10 mM HEPES buffer, pH 7.5) were placed in a 96 well microtiter plate (Packard OptiPlate™-96, white polystyrene). Usually, four or eight replica of each sample (corresponding to one test condition) were placed in one column of wells. The plate was sealed with Scotch Pad (Qiagen). Incubation at given temperature, shaking and measurement of the ThT fluorescence emission were done in a Fluoroskan Ascent FL fluorescence platereader (Thermo Labsystems). The temperature was adjusted to 37° C. The plate was incubated with orbital shaking adjusted to 960 rpm with an amplitude of 1 mm. Fluorescence measurement was done using excitation through a 444 nm filter and measurement of emission through a 485 nm filter. Each run was initiated by incubating the plate at the assay temperature for 10 min. The plate was measured every 20 minutes for a desired period of time. Between each measurement, the plate was shaken and heated as described. After completion of the ThT assay the four or eight replica of each sample was pooled and centrifuged at 20000 rpm for 30 minutes at 18° C. The supernatant was filtered through a 0.22 μm filter and an aliquot was transferred to a HPLC vial. The concentration of peptide in the initial sample and in the filtered supernatant was determined by reverse phase HPLC using an appropriate standard as reference. The percentage fraction the concentration of the filtered sample constituted of the initial sample concentration was reported as the recovery. The measurement points were saved in Microsoft Excel format for further processing and curve drawing and fitting was performed using GraphPad Prism. The background emission from ThT in the absence of fibrils was negligible. The data points are typically a mean of four or eight samples and shown with standard deviation error bars. Only data obtained in the same experiment (i.e. samples on the same plate) are presented in the same graph ensuring a relative measure of fibrillation between experiments. The data set may be fitted to Eq. (1).

Compound	ThT Assay Lag time (h) [Assay (III), pH 7.5] [h]
CC[C@H](C)[C@H](NC(=O)[C@H](CC(C)C)NC(=O)[C@H](Cc1c[nH]c2ccccc12)NC(=O)[C@H](CCCCNC(=O)COCCOCCNC(=O)COCCOCCNC(=O)CC[C@H](NC(=O)CC[C@H](NC(=O)CC[C@H](NC(=O)CCCCCCCCCCCCCCCCC(=O)O)C(=O)O)C(=O)O)C(=O)O)NC(=O)[C@@H](NC(=O)[C@H](Cc1ccccc1)NC(=O)[C@H](CC(=O)O)NC(=O)[C@H](CCCNC(=N)N)NC(=O)[C@H](C)NC(=O)[C@H](CCCNC(=N)N)NC(=O)[C@H](CCCNC(=N)N)NC(=O)[C@H](CC(C)C)NC(=O)[C@H](CC(=O)O)NC(=O)[C@H](CC(C)C)NC(=O)[C@H](Cc1ccc(O)cc1)NC(=O)[C@H](CCCCN)NC(=O)[C@H](CO)NC(=O)[C@H](Cc1ccc(O)cc1)NC(=O)[C@H](CC(=O)O)NC(=O)[C@H](CO)NC(=O)[C@@H](NC(=O)[C@H](Cc1ccccc1)NC(=O)[C@@H](NC(=O)CNC(=O)[C@H](CCC(N)=O)NC(=O)C(C)(C)NC(=O)[C@@H](N)Cc1c[nH]cn1)[C@@H](C)O)[C@@H](C)O)C(C)C)C(=O)N[C@@H](CO)C(=O)N[C@H](C(N)=O)[C@@H](C)O [Chem. 12, N^ε24-[2-[2-[2-[[2-[2-[2-[[(4S)-4-carboxy-4-[[(4S)-4-carboxy-4-[[(4S)-4-carboxy-4-(17-carboxyheptadecanoylamino)butanoyl]amino]butanoyl]amino]butanoyl]amino]ethoxy]ethoxy]acetyl]amino]ethoxy]ethoxy]acetyl]-[Aib2,Leu16,Arg20,Lys24,Ile27,Ser28]-Glucagon amide] (H-H[Aib]QGTFTSDYSKYLDLRRARDFVK([AEEA-AEEA-γGlu-γGlu-γGlu-C18 diacid])WLIST-NH2)	45.0
CC[C@H](C)[C@H](NC(=O)[C@H](CC(C)C)NC(=O)[C@H](Cc1c[nH]c2ccccc12)NC(=O)[C@H](CCC(N)=O)NC(=O)[C@@H](NC(=O)[C@H](Cc1ccccc1)NC(=O)[C@H](CC(=O)O)NC(=O)[C@H](CCCNC(=N)N)NC(=O)[C@H](C)NC(=O)[C@H](CCCNC(=N)N)NC(=O)[C@H](CCCNC(=N)N)NC(=O)[C@H](C)NC(=O)[C@H](CC(=O)O)NC(=O)[C@H](CC(C)C)NC(=O)[C@H](Cc1ccc(O)cc1)NC(=O)[C@H](CCCNC(=N)N)NC(=O)[C@H](CO)NC(=O)[C@H](CC(C)C)NC(=O)[C@H](CC(=O)O)NC(=O)[C@H](CO)NC(=O)[C@@H](NC(=O)[C@H](Cc1ccccc1)NC(=O)[C@@H](NC(=O)CNC(=O)[C@H](CCC(N)=O)NC(=O)C(C)(C)NC(=O)[C@@H](N)Cc1c[nH]cn1)[C@@H](C)O)[C@@H](C)O)C(C)C)C(=O)N[C@@H](CCCCNC(=O)CC[C@H](NC(=O)CC[C@H](NC(=O)CC[C@H](NC(=O)CCCCCCCCCCCCCCCCC(=O)O)C(=O)O)C(=O)O)C(=O)O)C(=O)N[C@H](C(N)=O)[C@@H](C)O [Chem. 14, N^ε28-[(4S)-4-carboxy-4-[[(4S)-4-carboxy-4-[[(4S)-4-carboxy-4-(17-carboxyheptadecanoylamino)butanoyl]amino]butanoyl]amino]butanoyl]-[Aib2,Leu10,Arg12,Ala16,Arg20,Ile27,Lys28]-Glucagon amide] (HELM PEPTIDE1{H.[Aib].Q.G.T.F.T.S.D.L.S.R.Y.L.D.A.R.R.A.R.D.F.V.Q.W.L.I.K.T.[am]}|PEPTIDE2{[O=C(O)CCCCCCCCCCCCCCCCC(=O)[*:2]].[gGlu].[gGlu].[gGlu]}$PEPTIDE1,PEPTIDE2,28:R3-4:R2$$$V2.0)	45.0
